Reference: PubChem BioAssay AID1259308 (NCATS, 2017)

Screen: 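Genes whose loss raises luciferase production in HEK293 cells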 (primary screen)
Cell system: human HEK293 embryonic kidney cells stably expressing firefly luciferase (HEK-CMV-Luc2-Hygro)
Knock-down reagent: single siRNA against human genes, 0.8 pmol siRNA per well
Duration: 72 h
Measurement: 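Luciferase light (ONE-Glo) measured on one replicate plate set and viability (CellTiter-Glo) on the other, scaled to a negative control siRNA, with robust z-scores and luciferase per cell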
Scale: total luciferase, z-score and total luciferase, % of control: higher = more reporter protein produced; luciferase per cell, z-score: higher = more reporter output per viable cell; viable cells, % of control: higher = more viable cells
Hit rule: 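An siRNA counts as active if its total luciferase robust z-score exceeds 3; genes with two or more such siRNAs out of three were retested with fresh siRNAs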
Calls: active = raised luciferase; inactive = no rise
Here is a random part of about 59,000 reagents tested. About 1,510 of all reagents (2.6%) were called active. 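Calls use total luciferase alone and ignore viability, so some active siRNAs may act by altering cell number.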 Unmarked entries are inactive. The numbers tell different reagents against one gene apart.

no.	gene symbol	reagent no.	total luciferase, z-score	total luciferase, % of control	luciferase per cell, z-score	viable cells, % of control
1	SLITRK6 (SLIT and NTRK like family member 6)	1	-1.68	48.4	-2.39	102
2	SLITRK6 (SLIT and NTRK like family member 6)	2	-0.752	66.9	-1.04	98.4
3	SLITRK6 (SLIT and NTRK like family member 6)	3	-0.428	73.4	-0.986	106
4	ZNF718 (zinc finger protein 718)	1	1.26	107	1.68	76.6
5	ZNF718 (zinc finger protein 718)	2	-2.48	32.6	-1.84	59.1
6	ZNF718 (zinc finger protein 718)	3	-0.42	73.5	-0.479	93.2
7	ARGFX (arginine-fifty homeobox)	1	1.27	107	1.45	81.8
8	ARGFX (arginine-fifty homeobox)	2	0.623	94.3	0.213	99.6
9	ARGFX (arginine-fifty homeobox)	3	0.892	99.6	1	85.5
10	ZNF687 (zinc finger protein 687)	1	-0.415	73.6	-0.259	88.1
11	ZNF687 (zinc finger protein 687)	2	-1.56	50.8	0.0487	56.1
12	ZNF687 (zinc finger protein 687)	3	-0.677	68.4	-0.775	93.8
13	SMG7-AS1 (SMG7 antisense RNA 1)	1	-0.179	78.3	-0.675	105
14	SMG7-AS1 (SMG7 antisense RNA 1)	2	0.26	87.1	1.49	65.7
15	SMG7-AS1 (SMG7 antisense RNA 1)	3	-0.0973	80	0.998	68.7

An excerpt from above, showing only “total luciferase, z-score”.
ARGFX (arginine-fifty homeobox) #1	1.27
ARGFX (arginine-fifty homeobox) #2	0.623
ARGFX (arginine-fifty homeobox) #3	0.892
ZNF687 (zinc finger protein 687) #1	-0.415

Next reagents follow:
no.	gene symbol	reagent no.	total luciferase, z-score	total luciferase, % of control	luciferase per cell, z-score	viable cells, % of control
16	PNMA1 (PNMA family member 1)	1	0.0422	82.7	-0.477	105
17	PNMA1 (PNMA family member 1)	2	0.666	95.1	0.428	95
18	PNMA1 (PNMA family member 1)	3	2.04	123	1.5	92.3
19	TRIM54 (tripartite motif containing 54)	1	0.13	84.5	-0.369	104
20	TRIM54 (tripartite motif containing 54)	2	-0.399	73.9	-0.473	93.6
21	TRIM54 (tripartite motif containing 54)	3	0.31	88.1	0.294	91.1
22	KIF3B (kinesin family member 3B)	1	-0.643	69.1	-0.534	88.9
23	KIF3B (kinesin family member 3B)	2	-0.971	62.6	-0.187	73.4
24	KIF3B (kinesin family member 3B)	3	1.37	109	0.616	104
